Reference: US20120220567A1, “BENZO-FUSED OXAZEPINE COMPOUNDS AS STEAROYL-COENZYME A DELTA-9 DESATURASE INHIBITORS” (priority 2009, published 2012)
Structures were worked out from names or drawings and are uncertain.

Chains of the proteins cited; added tags and fusions are not shown.
UniProt O00767, whole entry: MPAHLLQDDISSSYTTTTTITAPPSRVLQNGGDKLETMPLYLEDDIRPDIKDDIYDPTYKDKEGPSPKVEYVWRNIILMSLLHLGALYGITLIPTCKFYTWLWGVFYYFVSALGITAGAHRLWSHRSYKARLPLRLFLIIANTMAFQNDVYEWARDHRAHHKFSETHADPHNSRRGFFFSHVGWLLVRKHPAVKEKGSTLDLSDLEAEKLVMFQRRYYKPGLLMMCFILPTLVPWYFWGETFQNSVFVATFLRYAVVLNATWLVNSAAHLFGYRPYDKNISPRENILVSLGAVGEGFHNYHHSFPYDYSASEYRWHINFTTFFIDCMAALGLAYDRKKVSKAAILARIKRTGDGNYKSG

Biological target: SCD-1 (Homo sapiens, UniProt O00767)
Experiment: Stearoyl-CoA desaturase assay (HepG2 cell P2 pellet)
Conditions: read-out: Ave IC50 nM; Table 1, compounds of formula (Ia); protein from HepG2 cell P2 pellet, 20 μM stearoyl-CoA, 15 min at 25° C.

| IC50 [nM] | SMILES |
| --- | --- |
| 500 to 10000 | CC(=O)NCC(=O)N1CCC2(CC1)CCN(Cc1ccc(C(C)(C)C)cc1)c1cccc(Cl)c1O2 [Compound 15] |
| 500 to 10000 | CC(=O)NCC(=O)N1CCC2(CC1)CCN(Cc1cccc(C(F)(F)F)c1)c1cccc(F)c1O2 [Compound 45] |
| 50 to 499 | CC(=O)NCC(=O)N1CCC2(CC1)CCN(Cc1ccc(C(C)(C)C)cc1)c1cccc(F)c1O2 [Compound 46] |
| 50 to 499 | CCc1ccc(CN2CCC3(CCN(C(=O)CNC(C)=O)CC3)Oc3c(F)cccc32)cc1 [Compound 47] |
